Data as given in US20050191294A1, “Compositions and methods of use of targeting peptides for diagnosis and therapy” (Board of Regents, The University of Texas System, priority 2003, published 2005).
These are yes or no findings as the source states them, for the method shown. A result given as binding can be weak or reduced; the word gives no strength.

Legend:
[1] = target: recombinant GRP78 (Stressgen); test: discussion of the in vitro phage binding assay
[2] = target: recombinant GRP78 (Stressgen); test: phage binding to proteins immobilized on microtiter wells

Binder	binding [1]	binding [2]
WIFPWIQL (peptide, not shown: large carriers) [WIFPWIQL (SEQ ID NO:6)-phage]	binds	binds
WDLAWMFRLPVG (peptide, not shown: large carriers) [… (SEQ ID NO:7)-phage]	binds	binds
